Laboratory results as given in PubChem BioAssay AID651640 (Broad Institute, 2012).
Values joined by “and” are separate entries in the source; they are usually repeats but may differ in a detail not shown here. Identical values can stand only once. The campaign covered roughly 350,000 compounds. About 6,000 (1.7%) were called active. Inconclusive means that the source gave no clear call. Such entries were picked first, then a sample of the others. Rule as the data show it: active = CPE inhibition above about 20% (passing the limit was not always enough); inconclusive = no clear call, values can overlap the other calls; tested in BHK-21 cells. More than one record can exist for a structure, and the calls need not agree.

Assay: protection of cells from dengue 2 killing – plate reader, single concentration, primary screen (AID 651640);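 also: 0% = median of neutral control wells and 100% = median of positive control wells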
Settings: DENV2-infected cells, cytopathic effect rescue, at 9.99 µM, stronger effect = higher value

SMILES	CPE inhibition
CC(=O)OCCCN(C)CC/C=C1/c2ccccc2CSc2ccccc21	active: 43.4%
N#Cc1ccc(C(=O)CN2CCN(c3ccccc3)CC2)cc1	inconclusive: 33.8%
C[C@@H]1CN([C@@H](C)CO)C(=O)c2cc(C#CCc3ccccc3)cnc2O[C@@H]1CN(C)C(=O)C1CCOCC1	active: 95.4%
COc1ccc(-c2c(C(=O)c3ccccc3)[nH]c(N)c2C(=O)c2ccc(Br)cc2)cc1OC	inconclusive: 49.6%
CCCOc1ccc(/C=N/NC(=O)c2nnn(-c3nonc3N)c2-c2cccs2)cc1OC	inconclusive: 20.2%
NS(=O)(=O)c1cc(C(=O)OCC(=O)Nc2ccc(Cl)cc2[N+](=O)[O-])ccc1Cl	inactive: -2.79%
CN(C)C(=O)c1ccc(-c2ccccc2[C@H]2[C@H](C#N)N(C(=O)C3CCCCC3)[C@H]2CO)cc1	active: 28%
CC(C)[C@H]1COCn2nncc2CC[C@H](C)C(=O)N1	inconclusive: 21.7%
C[C@H](CO)N1C[C@H](C)[C@@H](CN(C)C(=O)Nc2cccc3ccccc23)Oc2c(NC(=O)C3CC3)cccc2C1=O	inconclusive: 27.3%
COc1cc(C(=O)NNC(=O)CCOc2cccc(Br)c2)cc(OC)c1OC	inconclusive: 42.4%
O=C(Nc1cccc(O)c1)c1ccc(C(F)(F)F)cc1	inconclusive: 42.4%
CCN(C[C@H]1N[C@@](C)(C(=O)OC)[C@H]2C(=O)N(C)C(=O)[C@@H]12)C(=O)c1ccc(F)cc1	inconclusive: 95.7%
O=C(O)C[C@@H]1C[C@@H]2c3cc(NC(=O)Nc4ccc(F)cc4)ccc3O[C@@H]2[C@H](CO)O1	inactive: 2.21%
CC(C)C#Cc1cnc2c(c1)C(=O)N([C@H](C)CO)C[C@@H](C)[C@@H](CN(C)C(=O)Nc1ccccc1F)O2	inactive: 8.02%
Nc1nnn(CC(=O)N/N=C/c2ccccc2Cl)n1	inconclusive: 20.3%
CCOC(=O)C1=CC[C@@H](c2cccc(C)c2)N(S(=O)(=O)c2ccc(C)cc2)[C@H]1C(=O)OCC	inconclusive: 57%
COCCNC(=O)[C@@H]1CSC2c3ccc(OC)c(OC)c3C(=O)N21 (some centres undefined)	inactive: 7.13%
CC1(OC(=O)CCc2ccccc2)C(=O)C=C2C=C(c3ccc(C#N)cc3)N(c3ccccc3)C=C2C1=O (centres undefined)	active: 41.2%
O=C(Nc1cccc(Cl)c1)N[C@@H]1CC[C@H](CCNC(=O)C2CCC2)O[C@H]1CO	inactive: 0.438%
C[C@@H]1CN([C@@H](C)CO)C(=O)Cc2cc(NC(=O)Nc3cccc4ccccc34)ccc2O[C@H]1CN(C)Cc1ccccc1	active: 20.4%
C[C@@H]1CN([C@H](C)CO)C(=O)c2cc(NC(=O)Nc3ccc(F)cc3)ccc2O[C@@H]1CN(C)Cc1ccc(C(=O)O)cc1	inconclusive: 24.6%
COC(=O)c1ccc(C(=O)O)nc1	inactive: -0.364%
Cc1ccc(S(=O)(=O)Nc2ccccc2N(C)S(=O)(=O)c2ccc(C)cc2)cc1	inconclusive: 37.3%
O=C(CCNC(=O)c1ccccc1Cl)Nc1ccncc1	inconclusive: 30.3%
O=C(NCC(F)(F)F)[C@@H]1[C@@H](CO)[C@@H]2Cn3c(ccc(-c4ccncc4)c3=O)[C@@H]2N1Cc1ccncc1	inconclusive: 28.9%

SMILES	CPE inhibition
N#CCCN(C(=O)CSc1nnc(-c2ccncc2)n1C1CC1)c1ccccc1	inconclusive: 24.8%
C[C@@H]1CCC[C@]2(O[C@H](CCO)C[C@@H](O)[C@@H]2O)O1	inconclusive: 45.1%
COc1ccc(C(CNC(=O)c2oc3cc(C)c(C)cc3c2C)N2CCCCC2)cc1 (centres undefined)	inconclusive: 20.5%
Cc1noc(C)c1NC(=O)N(C)C[C@H]1Oc2ncc(/C=C/c3ccccc3)cc2C(=O)N([C@@H](C)CO)C[C@@H]1C	inactive: 3.88%
COc1ccc(Cc2nnc(SCc3ccc([N+](=O)[O-])cc3)o2)cc1	inconclusive: 35.4%
C[C@@H]1CN([C@H](C)CO)C(=O)c2cccc(N(C)C)c2O[C@H]1CN(C)C	inactive: 2.61%
Cc1ccc(OCC(=O)Nc2cccc(S(=O)(=O)N3CCCC3)c2)cc1C	inconclusive: 29.6%
C[C@H](CO)N1C[C@H](C)[C@@H](CN(C)C)Oc2ccc(NS(=O)(=O)c3ccccc3)cc2C1=O	inactive: 1.18%
CCOc1ccc(/C=C2\SC(=S)N(CCC(=O)Nc3cccc(C(=O)O)c3)C2=O)cc1	active: 31.9%
CCn1c(Cc2ccccc2)n[nH]c1=S	inconclusive: 21.7%
COc1ccc(NC(=O)c2c(F)cccc2F)cc1S(=O)(=O)Nc1ccc(Br)cc1	active: 49.4%
Cc1ccccc1S(=O)(=O)NCC[C@@H]1CC[C@H](NC(=O)Nc2cccc(F)c2)[C@@H](CO)O1	inactive: 0.349%
O=c1cc(-c2ccsc2)oc2ccccc12	inconclusive: 32.4%
C[C@@H]1CN([C@@H](C)CO)C(=O)c2cc(NC(=O)Cn3cnnn3)ccc2O[C@@H]1CN(C)Cc1ccc(C(=O)O)cc1	inactive: 2.43%
Cc1cc(Cl)ccc1C(=O)C1CCCN(C(=O)c2ccc3ncccc3c2)C1 (centres undefined)	inconclusive: 51.4%
CCOP(=O)(c1ccccc1)C(O)c1ccc([N+](=O)[O-])cc1 (centres undefined)	active: 39.4%
COc1ccccc1-c1cnc2c(c1)C(=O)N([C@@H](C)CO)C[C@@H](C)[C@@H](CN(C)Cc1ccc(F)cc1)O2	inactive: 0.518%
C[C@H]1CN([C@@H](C)CO)C(=O)Cc2cc(NS(=O)(=O)c3ccccc3)ccc2O[C@H]1CN(C)Cc1ccc(-c2ccccc2)cc1	inconclusive: 24.9%
CC1CCCCC1NC(=O)COc1cccnc1[N+](=O)[O-] (centres undefined)	inconclusive: 37.8%
COc1ccc(OC)c(NC2c3ncccc3C(=O)N2Cc2ccco2)c1 (centres undefined)	inactive: 5.05%
C[C@@H]1CCCCO[C@@H](CN(C)C(=O)NC2CCCCC2)[C@H](C)CN([C@@H](C)CO)C(=O)c2cc(NC(=O)Nc3ccc(F)cc3)ccc2O1	active: 24.1%
COc1ccc(S(=O)(=O)N2CC[C@@H]3[C@H]2c2cc(-c4ccccc4F)ccc2N(C)[C@H]3CO)cc1	active: 25.5%
COc1ccccc1NC(=O)N1C[C@@H]2[C@H](c3ccccc31)[C@@H](CO)N2C(C)=O	active: 43.9%
CCC(C)Cn1cnc2c(SCc3ccccc3F)nc(N)nc21 (centres undefined)	inconclusive: 56.4%
O=C1CN(Cc2ccccc2)CC(=O)N1	inactive: 9.49%

SMILES	CPE inhibition
COc1cccc(-c2ccc(C3[C@H]4CNC[C@@H]3N4C(=O)Nc3ccc(C(F)(F)F)cc3)cc2)c1 (some centres undefined)	active: 33.1% and inactive: -9.37%
O=C(NC1CCCCC1)N[C@H]1CC[C@@H](CC(=O)N2CCOCC2)O[C@H]1CO	inconclusive: 37.8%
O=C(COC(=O)c1ccccc1C(=O)c1ccc(Cl)cc1)NCCc1ccccc1	inactive: 1.18%
COC(=O)C1=C(C)N(Cc2ccc(C(F)(F)F)cc2)C(=NCc2ccc(OC)cc2)NC1c1ccccc1 (centres undefined)	inconclusive: 33%
COc1ccc(CC(=O)N2CCN(S(=O)(=O)c3ccc(Cl)s3)CC2)cc1	inconclusive: 70.2%
C=C1CCC[C@]2(C)C[C@H]3OC(=O)C(CN4CC(C)OC(C)C4)[C@H]3C[C@@H]12 (some centres undefined)	inconclusive: 28.4%
Cc1ccc(NCC(=O)N/N=C/c2cc(O)ccc2[N+](=O)[O-])cc1	inactive: 6.99%
C[C@@H]1CN([C@@H](C)CO)C(=O)c2cc(NS(=O)(=O)c3ccc(F)cc3)ccc2O[C@@H]1CN(C)Cc1ccc(Oc2ccccc2)cc1	inactive: -1.9%
COc1ccc(NC(=O)N(C)C[C@H]2Oc3c(NC(=O)CCCCCC(=O)Nc4ccccc4N)cccc3C(=O)N([C@@H](C)CO)C[C@H]2C)cc1	active: 33.6%
CC(C)C(=O)N=c1sc2cc(F)cc(F)c2n1C	inactive: -6.06%
C[C@H](CO)N1C[C@H](C)[C@H](CN(C)Cc2ccc(O)cc2)OCc2cnnn2CCCC1=O	inactive: 6.76%
CN(C)CC(=O)NC[C@H]1N[C@@H](CO)[C@H]1c1ccc(-c2cccc(C#N)c2)cc1	active: 24.9%
Cc1ccc2cccc(OCC(=O)Nc3ccc4c(c3)OCO4)c2n1	inconclusive: 34.7%
COc1cccc(CNC(=O)COC(=O)c2cc([N+](=O)[O-])ccc2N2CCCC2)c1	inconclusive: 21.6%
O=C(Nc1ccc([N+](=O)[O-])cc1)Nc1ccc(Cl)cc1F	inconclusive: 21.2%
CO[C@@H]1CN(C)C(=O)c2cc(NC(=O)Nc3ccccc3Cl)ccc2OC[C@@H](C)N(S(=O)(=O)CC(F)(F)F)C[C@H]1C	inactive: 1.23%
Cc1cc2c(cc(C(=O)N3CCC(C(=O)N4CCCC4)CC3)n2Cc2c(F)cccc2Cl)o1	inconclusive: 50.5%
CCCNC(=O)N1CC2(CCN(C)CC2)c2c([nH]c3cc(OC)ccc23)[C@H]1CO	inconclusive: 25.7%
O=C1CC[C@@H]2c3[nH]c4ccc(F)cc4c3CCN12	inactive: -0.255%
COc1ccccc1NC(=O)N(C)C[C@H]1Oc2ncc(Br)cc2C(=O)N([C@H](C)CO)C[C@H]1C	inconclusive: 45.9%
O=c1[nH]c(CN2CCN(c3ccc(O)cc3)CC2)nc2scc(-c3ccc(Cl)cc3)c12	inactive: 2.64%
O=C1c2cccc3cccc(c23)C(=O)N1CC1CCN(S(=O)(=O)c2ccccc2)CC1	inconclusive: 34.4%
CC(C)(C)CC(=O)Nc1nnc(SCC(=O)NCc2cccs2)s1	inconclusive: 28.5%
Cc1ccccc1-c1nc(CS(=O)(=O)CC(=O)NCCCN2CC(C)CC(C)C2)c(C)o1 (centres undefined)	inconclusive: 26.9%
